# Experimental data: PubChem BioAssay AID743121 (NCATS, 2013)
# Aim: 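Genes whose silencing strengthens cell killing by camptothecin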 (primary screen)
# Cell system: MDA-MB-231 cells, a human breast cancer line
# Reagents: single siRNA against human genes, 20 nM siRNA (0.8 pmol per well)
# Duration: 120 h (drug added 48 h after transfection, read 72 h later)
# Conditions: camptothecin 20 nM (about EC30) for 72 h; vehicle 0.1% DMSO in parallel plates
# Detection: 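Cell viability by ATP luminescence (CellTiter-Glo) as % of non-targeting siRNA wells, and the log2 ratio of viability without drug over viability with camptothecin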
# Scale: log2 vehicle/camptothecin viability: higher = stronger sensitisation to camptothecin; viability with camptothecin: higher = more viable cells
# Rule for the call: 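Each gene scored by redundant siRNA activity (RSA) over its individual siRNA ratios; a gene is called active at p < 0.001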
# Here is a random part of about 26,000 reagents. 167 of all reagents (0.63%) count as active. 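Calls are per gene from RSA p-values that are not deposited; an individual active-marked siRNA can sensitise only weakly.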 The numbers tell different reagents against one gene apart. Further read-outs or replicates are left out here.
target gene,reagent,log2 vehicle/camptothecin viability,viability with camptothecin (% of control),Outcome
RFK (GeneID 55312),1,-0.217,77,inactive
RFK (GeneID 55312),2,0.0266,97.6,inactive
RFK (GeneID 55312),3,0.0649,88.6,inactive
RFK (GeneID 55312),4,0.0795,71.8,inactive
TPO (GeneID 7173),1,-0.402,136,inactive
TPO (GeneID 7173),2,-0.31,49.7,inactive
TPO (GeneID 7173),3,0.145,70.5,inactive
TPO (GeneID 7173),4,0.295,39.7,inactive
KAT6B (GeneID 23522),1,-0.091,107,inactive
KAT6B (GeneID 23522),2,0.063,56,inactive
KAT6B (GeneID 23522),3,0.0206,50.4,inactive
MYH10 (GeneID 4628),1,-0.264,83.2,inactive
MYH10 (GeneID 4628),2,-0.302,122,inactive
MYH10 (GeneID 4628),3,-0.0731,67.2,inactive
MYH10 (GeneID 4628),4,-0.324,105,inactive
MTF2 (GeneID 22823),1,-0.232,75.7,inactive
MTF2 (GeneID 22823),2,-0.181,97,inactive
MTF2 (GeneID 22823),3,-0.513,131,inactive
MTF2 (GeneID 22823),4,-0.266,110,inactive
PPP1CA (GeneID 5499),1,-0.117,133,inactive
PPP1CA (GeneID 5499),2,0.365,52.8,inactive
PPP1CA (GeneID 5499),3,0.0305,74.2,inactive
PPP1CA (GeneID 5499),4,-0.167,59.3,inactive
TPD52L3 (GeneID 89882),1,-0.474,97.6,inactive
TPD52L3 (GeneID 89882),2,-0.349,93.5,inactive
TPD52L3 (GeneID 89882),3,-0.526,93.5,inactive
TPD52L3 (GeneID 89882),4,-0.387,61,inactive
TPD52L3 (GeneID 89882),5,-0.304,75.4,inactive
TPD52L3 (GeneID 89882),6,-0.845,92,inactive
TPD52L3 (GeneID 89882),7,0.0547,50.1,inactive
TPD52L3 (GeneID 89882),8,-0.453,77.1,inactive
CORT (GeneID 1325),1,0.252,97.3,inactive
CORT (GeneID 1325),2,0.233,74.9,inactive
CORT (GeneID 1325),3,-0.195,102,inactive
CORT (GeneID 1325),4,-0.0666,103,inactive
QSOX1 (GeneID 5768),1,-0.489,110,inactive
QSOX1 (GeneID 5768),2,0.158,40.8,inactive
QSOX1 (GeneID 5768),3,-0.348,81.4,inactive
QSOX1 (GeneID 5768),4,-0.363,49.9,inactive
SLC25A41 (GeneID 284427),1,-0.248,95.2,inactive
SLC25A41 (GeneID 284427),2,-0.1,105,inactive
SLC25A41 (GeneID 284427),3,-0.0146,70.8,inactive
SLC25A41 (GeneID 284427),4,0.47,38.2,inactive
CCL19 (GeneID 6363),1,-0.327,69.3,inactive
CCL19 (GeneID 6363),2,-0.232,89,inactive
CCL19 (GeneID 6363),3,-0.146,61.4,inactive
CCL19 (GeneID 6363),4,-0.0809,50.6,inactive
SSTR2 (GeneID 6752),1,-0.235,44.6,inactive
SSTR2 (GeneID 6752),2,-0.113,110,inactive
SSTR2 (GeneID 6752),3,0.0634,41.3,inactive
SSTR2 (GeneID 6752),4,-0.463,66.3,inactive
CPNE4 (GeneID 131034),1,0.762,27.2,inactive
CPNE4 (GeneID 131034),2,-0.0534,97.7,inactive
CPNE4 (GeneID 131034),3,-0.212,68.1,inactive
PPP1R15B (GeneID 84919),1,-0.298,107,inactive
PPP1R15B (GeneID 84919),2,0.181,40.6,inactive
PPP1R15B (GeneID 84919),3,0.0384,81.1,inactive
PPP1R15B (GeneID 84919),4,-0.0677,97.6,inactive
MED19 (GeneID 219541),1,0.112,84.7,inactive
MED19 (GeneID 219541),2,-0.109,72.7,inactive
MED19 (GeneID 219541),3,0.449,50.7,inactive
MED19 (GeneID 219541),4,0.336,33.6,inactive
BCL2L13 (GeneID 23786),1,-0.406,79.3,inactive
BCL2L13 (GeneID 23786),2,0.0786,77.1,inactive
BCL2L13 (GeneID 23786),3,-0.698,53.5,inactive
BCL2L13 (GeneID 23786),4,-0.741,38.5,inactive
IL17RE (GeneID 132014),1,-0.0536,87.5,inactive
IL17RE (GeneID 132014),2,-0.323,86,inactive
IL17RE (GeneID 132014),3,0.191,56.4,inactive
IL17RE (GeneID 132014),4,-0.0358,42.2,inactive
F2RL3 (GeneID 9002),1,-0.0858,99.5,inactive
F2RL3 (GeneID 9002),2,-0.446,74.5,inactive
F2RL3 (GeneID 9002),3,-0.703,35.4,inactive
F2RL3 (GeneID 9002),4,-0.564,78.3,inactive
DHH (GeneID 50846),1,-0.516,70.5,inactive
DHH (GeneID 50846),2,0.282,68.4,inactive
DHH (GeneID 50846),3,-0.474,96.8,inactive
DHH (GeneID 50846),4,-0.0678,87.6,inactive
GHRH (GeneID 2691),1,-0.0859,50.6,inactive
GHRH (GeneID 2691),2,-0.223,44.9,inactive
GHRH (GeneID 2691),3,0.0279,94.8,inactive
GHRH (GeneID 2691),4,-0.0465,94.4,inactive
CCN2 (GeneID 1490),1,-0.0705,87.5,inactive
CCN2 (GeneID 1490),2,-0.316,79.5,inactive
CCN2 (GeneID 1490),3,-0.206,88.3,inactive
PATE1 (GeneID 160065),1,-0.294,65.6,inactive
PATE1 (GeneID 160065),2,-0.259,62.5,inactive
PATE1 (GeneID 160065),3,-0.0858,90.8,inactive
PATE1 (GeneID 160065),4,-0.0151,106,inactive

Copied from the list.
For “log2 vehicle/camptothecin viability”, TPD52L3 (GeneID 89882) #1 has -0.474
For “log2 vehicle/camptothecin viability”, IL17RE (GeneID 132014) #1 is entered as -0.0536
For “log2 vehicle/camptothecin viability”, DHH (GeneID 50846) #4 has -0.0678
TPD52L3 (GeneID 89882) #8, Outcome → inactive
